# A weaker result is weaker than the reference pair of the same experiment. For at least one entry, the source does not settle the construct or the ends of the probe.
# Protein sequences, listed by entry. Tags and fused reporters are not part of them.
# UniProt Q8VDS3, whole entry: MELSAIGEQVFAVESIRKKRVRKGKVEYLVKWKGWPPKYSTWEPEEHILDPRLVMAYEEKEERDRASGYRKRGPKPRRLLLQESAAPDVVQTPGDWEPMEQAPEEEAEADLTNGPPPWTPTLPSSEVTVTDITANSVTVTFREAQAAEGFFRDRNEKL
# Biological target: CBX7 (Mus musculus) (UniProt Q8VDS3)
# Experiment: EMSA
# Details: purified recombinant protein
sequence,measurement,setting,value
GGGUGUGCGGACGGAGGUCAGAAA [Nucks1-FAM3-WT],binding result,label: radiolabelled,binds
GGGUGUGCGGACCCUCCUCAGAAA [Nucks1-FAM3-Mut],binding result,"label: radiolabelled, variant of Nucks1-FAM3-WT",binds more weakly
GGGAGGUAUAUUCCACCAUAGAG [Larp1-FAM1-Mut],binding result,"label: radiolabelled, variant of Larp1-FAM1-WT",binds more weakly
TCAAATAGAGGAGCTGGGGATTAAAAAGATAGGTCTGATTAAAGGACTGTGCAGTTCAGATAAATAGAGATAATGGGATGCCGTGCGGATAGATTGGTTTTCTCC [Dcaf12l1 probe + gene-specific LNA mixmers],binding result,"supershift, binding enhanced relative to RNA alone, 8 uM LNA in binding mix, not with control LNA, label: radiolabelled RNA, variant of Dcaf12l1 3'UTR EMSA probe",binds
GGGAGGUAUAUGUGGACAUAGAG [Larp1-FAM1-WT],binding result,label: radiolabelled,binds
GTAGCTTTTAGGAACTGTCAGCATGTTGTTGTTGAAGTGTGGAGCTGTAACTCTGCGTGGACTGTGGACAGTCAACAATATGTACTTAAAAGTTGCACTATTGCAA [Calm2 probe + gene-specific LNA mixmers],binding result,"supershift, binding enhanced relative to RNA alone, 8 uM LNA in binding mix, not with control LNA, label: radiolabelled RNA, variant of Calm2 3'UTR EMSA probe",binds
GGCCACTTTGACTCGTGTAGACTCCTTCCTGCTTCTCTCACTAGGGCTTAGACTTCTTGGAACTGTAGGGTGTGAACCCAGAGAC [Dusp9 probe + gene-specific LNA mixmers],binding result,"supershift, binding enhanced relative to RNA alone, 8 uM LNA in binding mix, not with control LNA, label: radiolabelled RNA, variant of Dusp9 3'UTR EMSA probe",binds
